According to paper PMC12667517, “Gigaxonin Potentiates Antiviral Innate Immune Responses by Targeting cGAS and TREX1” (Advanced Science, 2025):
No constants are given. Whether binding was seen depends on the method and setting. In cells and extracts the contact can be indirect. Binding calls can cover weak binding; strength is not graded here. Sequences can lack the tags named with a protein.

Biological target: gigaxonin kelch repeats (Ke) (human)
Experiment: co-IP; HEK293T cells transfected with tagged plasmids; NP-40 lysis buffer (150 mM NaCl, 1% NP-40, 20 mM Tris-HCl pH 7.4), Protein G Sepharose 2 h, washes with 0.5 M NaCl; for TREX1 the cells were treated with MG132 for 6 h

binding: binds
B1: Flag-TREX1 (protein, UniProt Q9NSU2-3 1-314)
chain: MGSQALPPGPMQTLIFFDMEATGLPFSQPKVTELCLLAVHRCALESPPTSQGPPPTVPPPPRVVDKLSLCVAPGKACSPAASEITGLSTAVLAAHGRQCFDDNLANLLLAFLRRQPQPWCLVAHNGDRYDFPLLQAELAMLGLTSALDGAFCVDSITALKALERASSPSEHGPRKSYSLGSIYTRLYGQSPPDSHTAEGDVLALLSICQWRPQALLRWVDAHARPFGTIRPMYGVTASARTKPRPSAVTTTAHLATTRNTSPSLGESRGTKDLPPVKDPGALSREGLLAPLGLLAILTLAVATLYGLSLATPGE
